Experimental data reported in paper PMC11270970.
Construct, isoform or probe ends are uncertain for at least one entry. The comparison behind a weaker result is the experiment's own reference, which may not be listed here.

Chains of the proteins cited; added tags and fusions are not shown. A line that says so, or that is headed by a name, gives the form on record, which may keep a tag or linker.
nucleolin (NuP), recombinant human (Homo sapiens), one chain, as listed by the source: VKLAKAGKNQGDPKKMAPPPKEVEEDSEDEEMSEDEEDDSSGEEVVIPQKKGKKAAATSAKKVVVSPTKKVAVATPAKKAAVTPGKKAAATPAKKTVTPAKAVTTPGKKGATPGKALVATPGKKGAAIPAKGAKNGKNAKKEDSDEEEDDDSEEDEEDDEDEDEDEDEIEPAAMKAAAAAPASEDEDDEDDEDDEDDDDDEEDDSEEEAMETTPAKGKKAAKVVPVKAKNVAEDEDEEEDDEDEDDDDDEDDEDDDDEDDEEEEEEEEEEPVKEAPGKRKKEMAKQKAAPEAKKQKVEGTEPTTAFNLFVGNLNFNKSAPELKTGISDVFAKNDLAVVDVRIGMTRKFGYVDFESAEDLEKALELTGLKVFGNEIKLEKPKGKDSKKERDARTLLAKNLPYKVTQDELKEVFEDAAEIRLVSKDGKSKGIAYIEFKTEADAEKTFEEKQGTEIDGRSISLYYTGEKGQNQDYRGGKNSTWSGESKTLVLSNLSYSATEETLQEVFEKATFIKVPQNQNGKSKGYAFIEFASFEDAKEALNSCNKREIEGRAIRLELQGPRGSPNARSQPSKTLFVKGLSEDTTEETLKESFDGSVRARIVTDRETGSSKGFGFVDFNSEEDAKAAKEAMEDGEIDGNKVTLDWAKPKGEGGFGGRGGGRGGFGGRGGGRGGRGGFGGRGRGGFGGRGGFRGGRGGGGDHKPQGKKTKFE

System: nucleolin (NuP), recombinant human (Homo sapiens)
Assay: SPR
Settings: minimal association; 5' triptolide via acetal ester linker - amino-CH2CH2-(OCH2CH2)3-O-; SPR with recombinant human nucleolin; recombinant protein; single-stranded DNA

Q: Does “CCTCCTCCTCCTTCTCCTCCTCC [CO-TP (TP-amino-CRO, 6b)]” bind?
A: binds more weakly
